Measurements as given in patent US11891362B1, “N2,N4-disubstituted pyrimidine-2,4-diamine compounds as antibacterial agents” (KING FAISAL UNIVERSITY, priority 2023, dated 2024).
Values after ≈ are worked out from the molar mass of the structure shown.

Columns and labels:
Assay in all cases: In vitro antibacterial activity, dilution susceptibility test (CLSI M07-A10)
Assay type in all cases: cell-based
[1] = system: Bacillus subtilis MTCC 441; details: MTCC441
Description: (§1) Enterococcus faecium resistant to VRE, and Gram-negative organisms including Klebsiella pneumonia, Escherichia coli, Pseudomonas aeruginosa.

[2] = system: Enterococcus faecium ATCC 35667; details: ATCC35667
Description: as §1

[3] = system: Enterococcus faecium ATCC 51559 (VRE resistant)
Description: as §1

[4] = system: Escherichia coli MTCC 443; details: MTCC443
Description: as §1

[5] = system: Staphylococcus aureus ATCC 29213; details: ATCC29213
Description: as §1

[6] = system: Staphylococcus aureus ATCC BAA-1556 (MERSA resistant); details: ATCCBAA1556
Description: as §1

[7] = system: Staphylococcus epidermidis
Description: as §1

CN[C@H](CC(C)C)C(=O)N[C@H]1C(=O)N[C@@H](CC(N)=O)C(=O)N[C@H]2C(=O)N[C@H]3C(=O)N[C@H](C(=O)N[C@H](C(=O)O)c4cc(O)cc(O)c4-c4cc3ccc4O)[C@H](O)c3ccc(c(Cl)c3)Oc3cc2cc(c3O[C@@H]2O[C@H](CO)[C@@H](O)[C@H](O)[C@H]2O[C@H]2C[C@](C)(N)[C@H](O)[C@H](C)O2)Oc2ccc(cc2Cl)[C@H]1O [Vancomycin, reference compound]
MIC [1]: 0.5 µg/mL (≈ 0.345 µM)
MIC [2]: 0.5 µg/mL (≈ 0.345 µM)
MIC [3]: > 128 µg/mL
MIC [4]: > 128 µg/mL
MIC [5]: 1 µg/mL (≈ 0.69 µM)
MIC [6]: 1 µg/mL (≈ 0.69 µM)
MIC [7]: 1 µg/mL (≈ 0.69 µM)
